Reference: PMC11603131

T1: FLAG-tagged PfRpn13 (codon-optimised for human cells) (Plasmodium falciparum) (UniProt Q8ILV5)
T1 sequence: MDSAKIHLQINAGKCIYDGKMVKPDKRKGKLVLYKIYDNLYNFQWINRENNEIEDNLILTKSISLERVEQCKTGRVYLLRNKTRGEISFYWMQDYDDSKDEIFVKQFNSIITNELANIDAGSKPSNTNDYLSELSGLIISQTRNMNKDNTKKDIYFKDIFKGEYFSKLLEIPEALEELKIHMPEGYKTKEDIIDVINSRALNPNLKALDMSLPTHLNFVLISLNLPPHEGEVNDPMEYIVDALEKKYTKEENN

B1: FLAG-tagged PfRpn13 (codon-optimised for human cells) (protein, UniProt Q8ILV5 1-253)
chain: T1 sequence

How the values were obtained:
[1] = target: T1, FLAG-tagged PfRpn13 (codon-optimised for human cells) (Plasmodium falciparum); experiment: co-IP; HEK293 cells co-expressing HA-tagged PfUCH37 constructs and FLAG-tagged PfRpn13; anti-FLAG or anti-HA magnetic beads; immunoblot
[2] = target: HA-tagged PfUCH37dN (poly-asparagine-rich region deleted) (Plasmodium falciparum); experiment: as above

Molecule | binding [1] | binding [2]
HA-tagged PfUCH37dN (poly-asparagine-rich region deleted) (Plasmodium falciparum) (enzyme) | binds | 
B1 |  | binds

No constants are given. Whether binding was seen depends on the method and setting. Binding seen in cells or lysates may run through a third protein. Binding calls can cover weak binding; strength is not graded here. Sequences can lack the tags named with a protein.
